The test has as its system BDF1 mice, P329 reticulum cell sarcoma ip, survival T/C. The test can be described thus: NCI In Vivo Anticancer Drug Screen. Data for tumor model P329 Reticulum Cell Sarcoma (intraperitoneal) in B6D2F1 (BDF1) mice. The settings on record: T/C endpoint: median survival time, schedule: Q01DX010 (ip), vehicle: saline, higher T/C = longer survival. On the procedure: The antitumor activity of compounds was measured in mice bearing transplantable tumors. Survival or tumor size were measured and the results are expressed as the measurement made in the treated group (T) divided by the measurement made in the vehicle treated control group (C). The tumor model used in this assay is P329 Reticulum Cell Sarcoma (intraperitoneal) in B6D2F1 (BDF1) mice

The structures appear in SMILES notation. The list is a part of this screen's results and no random one: it gathers some chemical classes. Other doses and runs of a compound may be missing. T/C is the treated group as % of the vehicle group. Some doses have a count of surviving animals in place of a T/C: the source files T/C as zero there, which appears to mark a toxic dose or a test without result, not a measured value. Some doses without a T/C left all or most animals alive at the check, yet need not have been tolerated: the source hardly ever lists a survival T/C far under the control, and the zero likely stands for such cases as well. Counts of survivors are from the toxicity check (mostly the fifth day) where no day follows; animals may have died later. Schedules are NCI's codes, read here as Q, the interval in days (D) or hours (H), X, the number of doses. Some entries hold several experiments; their values stand side by side, smallest first. For survival time, the PubChem record calls one and a half times the control and up active, and a quarter to a half above the control has no call in these data; cut-offs in other NCI protocols can differ. Some T/C values carry the count of animals alive at the toxicity check (mostly the fifth day); where neither a count nor a note follows, no animal had died by that day.

For the molecule `CN(N=O)C(=N)N[N+](=O)[O-]`, the T/C is, setting by setting: (dose: 8.0 mg/kg/injection) 130 and 138 % of control; (dose: 16.0 mg/kg/injection) 153 % of control. Further, the survivor count is, setting by setting: (dose: 16.0 mg/kg/injection) 6 of 6; (dose: 32.0 mg/kg/injection) 6 of 6; (dose: 64.0 mg/kg/injection) 5 of 6 and 6 of 6.

Turning to `NC1CCCCC1.O=P(O)(N(CCCl)CCCl)N1CC1`, the T/C reads like this: (dose: 1.25 mg/kg/injection) 107 % of control; (dose: 2.5 mg/kg/injection) 115 and 132 % of control; (dose: 5.0 mg/kg/injection) 119 [5 of 6 alive] and 125 % of control; (dose: 10.0 mg/kg/injection) 134 and 139 % of control; (dose: 20.0 mg/kg/injection) 130 % of control.

On to `Cc1[nH]c(=O)[nH]c(=O)c1N(CCCl)CCCl`, for which the T/C runs as follows: (dose: 125.0 micrograms/kg/injection) 93 % of control; (dose: 250.0 micrograms/kg/injection) 96 % of control; (dose: 500.0 micrograms/kg/injection) 106 % of control; (dose: 1000.0 micrograms/kg/injection) 118 % of control.

Consider `CC[C@@H](C)[C@@H]1NC(=O)/C(=C(\C)O)C1=O.c1ccc(CNCCNCc2ccccc2)cc1`, for which the T/C is, setting by setting: (dose: 10.0 mg/kg/injection) 107 % of control; (dose: 14.0 mg/kg/injection) 103 % of control; (dose: 20.0 mg/kg/injection) 107 % of control; (dose: 30.0 mg/kg/injection) 107 % of control.

These data come from PubChem BioAssay AID320 (DTP/NCI, 2004).
